Whole data set: some 33,000 sequences, median “E-score (-0.5 to 0.5)” near -0.0034, cut for the highest 2% near 0.25. The list shows a part of the results.
Target: T1, Yap3 (UniProt P38749)
T1 sequence: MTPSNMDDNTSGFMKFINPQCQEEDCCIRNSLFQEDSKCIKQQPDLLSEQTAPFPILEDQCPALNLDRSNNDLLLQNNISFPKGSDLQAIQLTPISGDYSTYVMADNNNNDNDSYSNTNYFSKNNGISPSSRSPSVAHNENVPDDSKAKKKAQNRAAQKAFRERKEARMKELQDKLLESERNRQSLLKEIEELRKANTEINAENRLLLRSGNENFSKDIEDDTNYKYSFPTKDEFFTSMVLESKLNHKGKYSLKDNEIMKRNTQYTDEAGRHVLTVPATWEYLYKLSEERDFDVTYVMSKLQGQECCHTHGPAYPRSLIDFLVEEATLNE
Experiment: PBM E-score (8-mer binding enrichment) (E-score (-0.5 to 0.5)); higher = stronger / more preferred TF binding
Settings: protein concentration: 100 nM; construct: GST-full length
Procedure, shortened: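 Universal all-10-mer Agilent arrays, double-stranded by primer extension on fresh or once-stripped slides, were probed with about 100-200 nM GST-tagged yeast transcription factors made by PURExpress. Fluorescent anti-GST detected bound protein, and masliner normalised the scans. E-scores from the Universal PBM Analysis Suite were given to each ungapped eight-base word pooled with its reverse complement.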

Sequence	PBM E-score
CTGTACCA	-0.177
ATGACGTG	0.127
ACGAAGCC	-0.0311
GACCACGA	0.0626
GGCATTCA	0.0407
GCAGTGAC	-0.11
GTGCTAGA	0.0158
GGAAAAAC	0.3
CGAGACGA	-0.0632
GGCGCCCC	-0.203
ATTAGGCA	-0.0189
AGGAATAT	0.148
AAACCGGC	-0.0239
CCTATCAC	-0.118
GCTTGCAC	-0.169
AAATCACT	0.133
TACAGGTA	0.105
CTGTCTCC	-0.0717
ACGCTCCT	-0.0527
CATCGCGG	-0.082
ATGCCATG	0.0188
TGCTGAAA	0.00603
AGCGCATC	0.0137
AGCGGCCG	-0.02
CGGCTTCC	-0.0962

Sequence	PBM E-score
AACCCTCA	0.00014
GCGCTAGC	-0.118
CGCAGCCC	-0.253
GGACAGCC	-0.105
GGCCGACA	-0.183
CCGTGTGC	-0.0669
ATCTGGAG	-0.165
TAGGTTGA	-0.0164
CCTTCGGC	-0.301
GCAAGACC	-0.0586
CACATTGG	0.0753
CGGCTGAA	-0.182
ATCAATCA	0.145
AGTGCACT	0.00706
CCGGCTAG	-0.289
GGCCACCC	-0.23
CAGGTTGC	0.097
GTGTATTA	0.338
GGGAGAAA	-0.0432
GACCTATA	0.136
ACTGAACT	-0.0105
AGGCTGCA	-0.111
GCTCCGGA	-0.0914
CGCGTCTA	0.102
AGCAACAG	-0.0561

Sequence	PBM E-score
GCACGGAC	0.00362
ACGTATTG	0.111
TGCTTACA	0.0854
ACGGTCTA	0.062
ATCCACGA	0.0482
CAAGCAGC	-0.117
AGGTTCTA	-0.0563
CATTACTA	0.292
GAGGGGGC	-0.408
ATACGCCC	-0.184
CTGACACA	0.0323
CACTGTAA	0.206
ATGTTCAG	0.0021
ACAAGAGT	0.0549
ATAAGAAG	0.0494
AATAAAGC	0.133
GAAATCAA	0.0981
CAGTTCGC	-0.0145
CTTGGCGC	-0.0848
CGATAGAA	0.0788
CATATTGG	0.134
ACAGAGGA	-0.00698
ATGAGACG	-0.0735
TGAGCCCA	-0.107
ACGGATCG	-0.106

Sequence	PBM E-score
AGACCCCA	-0.0654
ACCGGAGG	-0.265
GATCAGCA	0.0532
TAAATCAA	0.219
AGGATCGG	-0.156
AGACCCGC	-0.189
CTGAGATC	-0.172
AGAAGGAC	-0.0822
ATCTGAGC	0.0191
GAAAACTC	-0.052
ATTCGTTC	0.27
CATTGCTC	-0.0314
GAAAATAA	0.224
GAGACCCA	0.0371
ACCAGGTG	-0.245
AACTAAGC	0.148
GTTCATTA	0.259
GTTTAGAA	0.089
GGCCCGCC	-0.381
CAGTCTTA	0.0462
ATTTCGCG	0.16
GGAAACTA	-0.061
AACTCTGC	-0.184
AAGTTGGG	-0.0957
ACGACGGA	0.119

Sequence	PBM E-score
CAGGGAGA	-0.287
CTCCGAGA	-0.0208
TACCTCTA	0.0153
TCATGCGA	0.0851
CGAGGCAG	-0.131
ATTTCAAC	0.124
CCTATGAC	-0.0848
CGTGGTCC	-0.212
CGATGTCC	-0.0116
AAAATGCT	0.188
ATCAGTGA	-0.149
GGAGTTAA	0.0511
AAGTCGAG	-0.158
CTGGCGAA	-0.0722
CCACAGGG	-0.278
AGTTGAGC	0.0258
AGAAGGTA	0.28
ATACGCAG	-0.0663
CACGCCCC	-0.132
ATCACTCC	-0.119
ATTCCCCC	-0.211
ATCTCGTG	-0.0821
TGGTTTAA	0.0814
CAATCTTC	0.126
GAGCTGGA	-0.219

Some of the entries so far, in CSV form:
Sequence,PBM E-score
GGCCCGCC,-0.381
CAGTCTTA,0.0462
ATTTCGCG,0.16
GGAAACTA,-0.061
AACTCTGC,-0.184
AAGTTGGG,-0.0957
ACGACGGA,0.119
CAGGGAGA,-0.287
CTCCGAGA,-0.0208
TACCTCTA,0.0153
TCATGCGA,0.0851
CGAGGCAG,-0.131
ATTTCAAC,0.124
CCTATGAC,-0.0848
CGTGGTCC,-0.212
CGATGTCC,-0.0116
AAAATGCT,0.188
ATCAGTGA,-0.149
GGAGTTAA,0.0511
AAGTCGAG,-0.158
CTGGCGAA,-0.0722
CCACAGGG,-0.278
AGTTGAGC,0.0258
AGAAGGTA,0.28
ATACGCAG,-0.0663
CACGCCCC,-0.132
ATCACTCC,-0.119
ATTCCCCC,-0.211
ATCTCGTG,-0.0821
TGGTTTAA,0.0814
CAATCTTC,0.126

(continued)

Sequence	PBM E-score
GCCAACAC	-0.045
GTGCAGTA	-0.0443
CCCGTACA	-0.159
ACGCTTCT	0.00329
GTACCAGA	-0.0251
CAAATATC	0.285
CGACTGAC	-0.0829
GATAGCTA	-0.107
AATGCCCC	-0.109
ACACTAGT	0.0325
CGATTCGA	0.208
CCGCGCAA	-0.117
AACAATGT	0.00412
ATGGCTTG	-0.143
ATTTACTG	0.205
TAACGCTA	0.023
AACCTGTG	0.00997
AATTGGGA	0.127
ATCTCTGC	0.0777
AGTAAATA	0.26
AACGACCG	-0.00686
AGATAGCG	-0.0874
CTGCACAC	-0.138
ACTCAAGA	-0.00341
ATATTTTC	0.261

Sequence	PBM E-score
AAGGCCTC	-0.224
ACGCTGTC	-0.2
CTACGAGC	-0.0914
CCTAGTCG	-0.101
CTGGGCCC	-0.273
AGGTTGTC	-0.11
GTTTGCAA	0.157
CGACGCTC	-0.0108
AAGCTCGC	-0.134
CGTGAGTA	-0.0244
AACTTGGG	0.0624
GACCGCCA	-0.171
CGTACTTA	0.22
ATGATCTC	0.0357
CAACCGCA	0.00088
CACCACCC	-0.144
AGCCAATA	-0.0264
CACTCTGG	-0.136
CGAGGTGA	0.156
CCATGGGG	-0.249
CACTCCCC	-0.227
GGAATCTA	0.0443
